Source: PubChem BioAssay AID330 (DTP/NCI, 2004)
The list shows only some results of the screen, not a fair sample: it is rich in T/C values a quarter to a half above the control, in often repeated tests (any T/C) and in doses without a T/C. Other doses and runs of a compound stand elsewhere. T/C: endpoint of the treated group in % of that of the vehicle group. Some doses have a count of surviving animals in place of a T/C: the source files T/C as zero there, which appears to mark a toxic dose or a test without result, not a measured value. Some doses without a T/C left all or most animals alive at the check, yet need not have been tolerated: survival well below the control is almost never listed, so the zero probably covers shortened survival too. Survivors were counted at the toxicity check, usually on the fifth day, unless a day is given; later deaths do not show. Schedules are NCI's codes, read here as Q, the interval in days (D) or hours (H), X, the number of doses. Some entries were tested several times; the results are listed from low to high. For survival time, this PubChem deposit counts one and a half times the control or more as active, and values a quarter to a half above the control carry no call in these data; other NCI protocols may use other cut-offs.

Test system: P388 leukemia ip, CD2F1 mice, survival T/C
Test: NCI In Vivo Anticancer Drug Screen. Data for tumor model P388 Leukemia (intraperitoneal) in CD2F1 (CDF1) mice
Settings: T/C endpoint: median survival time, higher T/C = longer survival
[1] = dose: 100.0 mg/kg/injection, schedule: Q04DX003 (ip), vehicle: saline
[2] = dose: 200.0 mg/kg/injection, schedule: Q04DX003 (ip), vehicle: saline
[3] = dose: 400.0 mg/kg/injection, schedule: Q04DX003 (ip), vehicle: saline with Tween-80
[4] = dose: 400.0 mg/kg/injection, schedule: Q04DX003 (ip), vehicle: saline
[5] = dose: 200.0 mg/kg/injection, schedule: Q01DX009 (ip), vehicle: saline with Tween-80
[6] = dose: 240.0 mg/kg/injection, schedule: Q01DX005 (ip), vehicle: saline with Tween-80
[7] = dose: 100.0 mg/kg/injection, schedule: Q01DX009 (ip), vehicle: saline with Tween-80
[8] = dose: 25.0 mg/kg/injection, schedule: Q01DX009 (ip), vehicle: saline with Tween-80
[9] = dose: 100.0 mg/kg/injection, schedule: Q01DX005 (ip), vehicle: Klucel (hydroxypropylcellulose) (HPC)
[10] = dose: 200.0 mg/kg/injection, schedule: Q01DX005 (ip), vehicle: Klucel (hydroxypropylcellulose) (HPC)
[11] = dose: 50.0 mg/kg/injection, schedule: Q01DX009 (ip), vehicle: Klucel (hydroxypropylcellulose) (HPC)
[12] = dose: 100.0 mg/kg/injection, schedule: Q01DX009 (ip), vehicle: Klucel (hydroxypropylcellulose) (HPC)
[13] = dose: 200.0 mg/kg/injection, schedule: Q01DX009 (ip), vehicle: Klucel (hydroxypropylcellulose) (HPC)

With `Cc1cc(C)n2nc3c4ccsc4ncc3c2n1` the survivor count (dose: 200.0 mg/kg/injection, schedule: Q04DX002 (ip), vehicle: saline with Tween-80) was 0 of 6, 3 of 6, 5 of 6 and the survivor count (dose: 400.0 mg/kg/injection, schedule: Q04DX002 (ip), vehicle: saline with Tween-80) was 0 of 6.

In the case of `COC(C#N)c1ccccc1` (stereo not drawn), the T/C (dose: 12.5 mg/kg/injection, schedule: Q04DX003 (ip), vehicle: saline with Tween-80) is reported as 132 % of control, the survivor count (dose: 50.0 mg/kg/injection, schedule: Q04DX003 (ip), vehicle: saline with Tween-80) is reported as 2 of 6 and the survivor count (dose: 50.0 mg/kg/injection, schedule: Q04DX003 (ip), vehicle: saline) is reported as 0 of 6. The survivor count (dose: 100.0 mg/kg/injection, schedule: Q04DX003 (ip), vehicle: saline with Tween-80) was 0 of 6, the survivor count [1] was 0 of 6 and the survivor count (dose: 200.0 mg/kg/injection, schedule: Q04DX003 (ip), vehicle: saline with Tween-80) was 0 of 6. For the same molecule, the survivor count [2] was 0 of 6, the survivor count [3] was 0 of 6 and the survivor count [4] was 0 of 6.

`CCc1cccc(NC(=O)Sc2ccc(O)cc2)c1` was tested, and the survivor count [5] was 5 of 6.

For `O=C1CSC(c2ccc(F)cc2F)N1c1nncs1` (stereo not drawn), the survivor count [6] was 6 of 6.

In the case of `O=C1NC(=O)C2C1C1C(=O)NC(=O)C21` (stereo not drawn), the survivor count [5] is reported as 5 of 6.

In the case of `CN(C)c1nc(N)nc(Nc2ccc(Br)cc2)c1N=O`, the survivor count [7] is reported as 6 of 6, the survivor count [5] is reported as 6 of 6 and the survivor count (dose: 400.0 mg/kg/injection, schedule: Q01DX009 (ip), vehicle: saline with Tween-80) is reported as 0 of 6.

For `ClC1=C(Cl)C(Cl)=C(Cl)C1=Cc1ccccc1`, the T/C [8] was 130 % of control, the T/C (dose: 50.0 mg/kg/injection, schedule: Q01DX009 (ip), vehicle: saline with Tween-80) was 131 % of control and the survivor count [7] was 4 of 6 and 5 of 6. For the same molecule, the survivor count [5] was 0 of 6.

In the case of `Nc1nc(N)c2cc(NCc3ccccc3Cl)ccc2n1`, the survivor count (dose: 16.5 mg/kg/injection, schedule: Q01DX009 (ip), vehicle: saline with Tween-80) is reported as 5 of 6, the survivor count [8] is reported as 1 of 6 and 5 of 6 and the survivor count (dose: 37.5 mg/kg/injection, schedule: Q01DX009 (ip), vehicle: saline with Tween-80) is reported as 0 of 6 and 3 of 6. The survivor count (dose: 100.0 mg/kg/injection, schedule: Q01DX001 (ip), vehicle: saline with Tween-80) was 1 of 6, the survivor count (dose: 200.0 mg/kg/injection, schedule: Q01DX001 (ip), vehicle: saline with Tween-80) was 0 of 6 and the survivor count (dose: 400.0 mg/kg/injection, schedule: Q01DX001 (ip), vehicle: saline with Tween-80) was 0 of 6.

For `O=C(CC(c1ccccc1)C(C(=O)O)c1ccc(Br)cc1)c1ccccc1` (stereo not drawn), the survivor count (dose: 50.0 mg/kg/injection, schedule: Q01DX005 (ip), vehicle: Klucel (hydroxypropylcellulose) (HPC)) was 5 of 5, the survivor count [9] was 5 of 5 and the survivor count [10] was 4 of 5.

`Clc1ccc(N=Cc2ccc(C=Nc3ccc(Cl)cc3)cc2)cc1` was tested, and the survivor count [11] was 6 of 6, the survivor count [12] was 6 of 6 and the survivor count [13] was 6 of 6.

`N#CC1C2C1C1C=CC2n2c(=O)n(-c3ccccc3)c(=O)n21` (stereo not drawn) was tested, and the survivor count (dose: 12.5 mg/kg/injection, schedule: Q01DX005 (ip), vehicle: Klucel (hydroxypropylcellulose) (HPC)) was 5 of 5, the survivor count [9] was 3 of 5 and the survivor count [10] was 0 of 5.

In the case of `[Cl][Pt+2][Cl].[NH-]C(c1ccc(Cl)cc1)C([NH-])c1ccc(Cl)cc1` (stereo not drawn), the T/C (dose: 12.5 mg/kg/injection, schedule: Q04DX002 (ip), vehicle: saline with Tween-80) is reported as 131 % of control and the T/C (dose: 25.0 mg/kg/injection, schedule: Q04DX002 (ip), vehicle: saline with Tween-80) is reported as 133 % of control.

`COc1ccccc1C1OC2=Nc3cc(C)c(C)cc3NC2C1=O` (stereo not drawn) was tested, and the survivor count (dose: 60.0 mg/kg/injection, schedule: Q01DX005 (ip), vehicle: Klucel (hydroxypropylcellulose) (HPC)) was 6 of 6.

For `COc1ccc2nc(C)cc(N/N=C/c3ccc(N(CCCl)CCCl)cc3)c2c1`, the survivor count (dose: 6.25 mg/kg/injection, schedule: Q01DX009 (ip), vehicle: Klucel (hydroxypropylcellulose) (HPC)) was 6 of 6, the survivor count (dose: 12.5 mg/kg/injection, schedule: Q01DX009 (ip), vehicle: Klucel (hydroxypropylcellulose) (HPC)) was 6 of 6 and the survivor count [11] was 5 of 6. The survivor count [12] was 0 of 6 and the survivor count [13] was 0 of 5.

`COc1ccc2oc(-c3ccc(Cl)cc3)c(N3CCN(C)CC3)c2c1` was tested, and the T/C (dose: 240.0 mg/kg/injection, schedule: Q01DX005 (ip), vehicle: saline) was 129 % of control and the survivor count (dose: 480.0 mg/kg/injection, schedule: Q01DX005 (ip), vehicle: saline) was 0 of 6.

In the case of `O=C1NC(c2cccc(OCc3ccccc3)c2)Nc2ccccc21` (stereo not drawn), the survivor count (dose: 400.0 mg/kg/injection, schedule: Q01DX009 (ip), vehicle: Klucel (hydroxypropylcellulose) (HPC)) is reported as 6 of 6.

In the case of `CN(C)C[N+](C)(C)Cc1ccc(C[N+](C)(C)C[N+](C)(C)Cc2ccc(CCl)cc2)cc1`, the survivor count (dose: 1.56 mg/kg/injection, schedule: Q04DX003 (ip), vehicle: saline) is reported as 2 of 6, the survivor count (dose: 3.12 mg/kg/injection, schedule: Q04DX003 (ip), vehicle: saline) is reported as 1 of 6 and the survivor count (dose: 6.25 mg/kg/injection, schedule: Q04DX003 (ip), vehicle: saline) is reported as 0 of 6. The survivor count (dose: 12.5 mg/kg/injection, schedule: Q04DX003 (ip), vehicle: saline) was 0 of 6, the survivor count [1] was 0 of 6 and the survivor count [2] was 0 of 6. For the same molecule, the survivor count [4] was 0 of 6.

`CN(Cc1cnc2nc(N)nc(N)c2n1)c1ccc(C(=O)NC(CCC(=O)OCc2c(Cl)cccc2Cl)C(=O)OCc2c(Cl)cccc2Cl)cc1` (stereo not drawn) was tested, and the T/C (dose: 1.87 mg/kg/injection, schedule: Q01DX005 (ip), vehicle: saline with Tween-80) was 139 % of control, the survivor count (dose: 60.0 mg/kg/injection, schedule: Q01DX005 (ip), vehicle: saline with Tween-80) was 6 of 6 and the survivor count (dose: 120.0 mg/kg/injection, schedule: Q01DX005 (ip), vehicle: saline with Tween-80) was 6 of 6. The survivor count [6] was 2 of 6.

`CN(C)C1C(O)C2Oc3c(cc(O)c4c3C(=O)c3cc5c(c(O)c3C4=O)C(N3CCCC3)CC(C)(O)C5)C(C)(O2)C1O` (stereo not drawn) was tested, and the T/C (dose: 25.0 mg/kg/injection, schedule: Q01DX009 (ip), vehicle: other) was 130 % of control and the T/C (dose: 50.0 mg/kg/injection, schedule: Q01DX009 (ip), vehicle: other) was 140 % of control.

For `CCOC(=O)c1ccc(N2C(C(=O)OCC)Nc3ccc(C(=O)OCC)cc3C2C(=O)OCC)cc1` (stereo not drawn), the survivor count (dose: 400.0 mg/kg/injection, schedule: Q04DX002 (ip), vehicle: Klucel (hydroxypropylcellulose) (HPC)) was 6 of 6.

With `Cn1ccn(CCCCCCn2ccn(C)c2=S)c1=S` the survivor count (dose: 6.25 mg/kg/injection, schedule: Q01DX009 (ip), vehicle: suspension in saline) was 6 of 6, the survivor count (dose: 12.5 mg/kg/injection, schedule: Q01DX009 (ip), vehicle: saline) was 2 of 6 and the survivor count (dose: 25.0 mg/kg/injection, schedule: Q01DX009 (ip), vehicle: suspension in saline) was 0 of 6. For the same molecule, the survivor count (dose: 50.0 mg/kg/injection, schedule: Q01DX009 (ip), vehicle: suspension in saline) was 0 of 6, the survivor count (dose: 100.0 mg/kg/injection, schedule: Q01DX009 (ip), vehicle: suspension in saline) was 0 of 6 and the survivor count (dose: 200.0 mg/kg/injection, schedule: Q01DX009 (ip), vehicle: suspension in saline) was 0 of 6.

`Cc1nc(C)n2c(C)nnc2c1C` was tested, and the survivor count [1] was 6 of 6, the survivor count [2] was 0 of 6 and the survivor count [4] was 0 of 6.

With `c1ccc2c(c1)[nH]c1c2nc2ncccn21` the survivor count [10] was 0 of 6.

For `c1ccc2c(c1)Nc1ccncc1S2`, the survivor count [3] was 4 of 6.

In the case of `Cc1csc(NC(=S)NC(=O)c2ccccc2)n1`, the survivor count [3] is reported as 6 of 6.
